This experiment concerns the target acetyltransferase p300 (human (endogenous in MCF10A MII)) (UniProt Q09472). Put plainly: co-IP; lysates of MCF10A MII cells (1% Triton X-100, 20 mM Tris-HCl pH 7.5, 150 mM NaCl, 10% glycerol), treated or not with 5 ng/ml TGFβ for 45 min or 6 h; IP overnight with antibody to p63, HDAC3, SUZ12, p300 or SMAD2/3 or IgG control on Dynabeads; immunoblotting; in some panels ALK5 inhibitor SB505124, p38 inhibitor SB203580, or siRNA against SMAD2 and SMAD3 or p63. (A western blot detects proteins with antibodies after separation by electrophoresis.)

Amino acid sequences for entries named in this document (tags omitted).
UniProt Q09472: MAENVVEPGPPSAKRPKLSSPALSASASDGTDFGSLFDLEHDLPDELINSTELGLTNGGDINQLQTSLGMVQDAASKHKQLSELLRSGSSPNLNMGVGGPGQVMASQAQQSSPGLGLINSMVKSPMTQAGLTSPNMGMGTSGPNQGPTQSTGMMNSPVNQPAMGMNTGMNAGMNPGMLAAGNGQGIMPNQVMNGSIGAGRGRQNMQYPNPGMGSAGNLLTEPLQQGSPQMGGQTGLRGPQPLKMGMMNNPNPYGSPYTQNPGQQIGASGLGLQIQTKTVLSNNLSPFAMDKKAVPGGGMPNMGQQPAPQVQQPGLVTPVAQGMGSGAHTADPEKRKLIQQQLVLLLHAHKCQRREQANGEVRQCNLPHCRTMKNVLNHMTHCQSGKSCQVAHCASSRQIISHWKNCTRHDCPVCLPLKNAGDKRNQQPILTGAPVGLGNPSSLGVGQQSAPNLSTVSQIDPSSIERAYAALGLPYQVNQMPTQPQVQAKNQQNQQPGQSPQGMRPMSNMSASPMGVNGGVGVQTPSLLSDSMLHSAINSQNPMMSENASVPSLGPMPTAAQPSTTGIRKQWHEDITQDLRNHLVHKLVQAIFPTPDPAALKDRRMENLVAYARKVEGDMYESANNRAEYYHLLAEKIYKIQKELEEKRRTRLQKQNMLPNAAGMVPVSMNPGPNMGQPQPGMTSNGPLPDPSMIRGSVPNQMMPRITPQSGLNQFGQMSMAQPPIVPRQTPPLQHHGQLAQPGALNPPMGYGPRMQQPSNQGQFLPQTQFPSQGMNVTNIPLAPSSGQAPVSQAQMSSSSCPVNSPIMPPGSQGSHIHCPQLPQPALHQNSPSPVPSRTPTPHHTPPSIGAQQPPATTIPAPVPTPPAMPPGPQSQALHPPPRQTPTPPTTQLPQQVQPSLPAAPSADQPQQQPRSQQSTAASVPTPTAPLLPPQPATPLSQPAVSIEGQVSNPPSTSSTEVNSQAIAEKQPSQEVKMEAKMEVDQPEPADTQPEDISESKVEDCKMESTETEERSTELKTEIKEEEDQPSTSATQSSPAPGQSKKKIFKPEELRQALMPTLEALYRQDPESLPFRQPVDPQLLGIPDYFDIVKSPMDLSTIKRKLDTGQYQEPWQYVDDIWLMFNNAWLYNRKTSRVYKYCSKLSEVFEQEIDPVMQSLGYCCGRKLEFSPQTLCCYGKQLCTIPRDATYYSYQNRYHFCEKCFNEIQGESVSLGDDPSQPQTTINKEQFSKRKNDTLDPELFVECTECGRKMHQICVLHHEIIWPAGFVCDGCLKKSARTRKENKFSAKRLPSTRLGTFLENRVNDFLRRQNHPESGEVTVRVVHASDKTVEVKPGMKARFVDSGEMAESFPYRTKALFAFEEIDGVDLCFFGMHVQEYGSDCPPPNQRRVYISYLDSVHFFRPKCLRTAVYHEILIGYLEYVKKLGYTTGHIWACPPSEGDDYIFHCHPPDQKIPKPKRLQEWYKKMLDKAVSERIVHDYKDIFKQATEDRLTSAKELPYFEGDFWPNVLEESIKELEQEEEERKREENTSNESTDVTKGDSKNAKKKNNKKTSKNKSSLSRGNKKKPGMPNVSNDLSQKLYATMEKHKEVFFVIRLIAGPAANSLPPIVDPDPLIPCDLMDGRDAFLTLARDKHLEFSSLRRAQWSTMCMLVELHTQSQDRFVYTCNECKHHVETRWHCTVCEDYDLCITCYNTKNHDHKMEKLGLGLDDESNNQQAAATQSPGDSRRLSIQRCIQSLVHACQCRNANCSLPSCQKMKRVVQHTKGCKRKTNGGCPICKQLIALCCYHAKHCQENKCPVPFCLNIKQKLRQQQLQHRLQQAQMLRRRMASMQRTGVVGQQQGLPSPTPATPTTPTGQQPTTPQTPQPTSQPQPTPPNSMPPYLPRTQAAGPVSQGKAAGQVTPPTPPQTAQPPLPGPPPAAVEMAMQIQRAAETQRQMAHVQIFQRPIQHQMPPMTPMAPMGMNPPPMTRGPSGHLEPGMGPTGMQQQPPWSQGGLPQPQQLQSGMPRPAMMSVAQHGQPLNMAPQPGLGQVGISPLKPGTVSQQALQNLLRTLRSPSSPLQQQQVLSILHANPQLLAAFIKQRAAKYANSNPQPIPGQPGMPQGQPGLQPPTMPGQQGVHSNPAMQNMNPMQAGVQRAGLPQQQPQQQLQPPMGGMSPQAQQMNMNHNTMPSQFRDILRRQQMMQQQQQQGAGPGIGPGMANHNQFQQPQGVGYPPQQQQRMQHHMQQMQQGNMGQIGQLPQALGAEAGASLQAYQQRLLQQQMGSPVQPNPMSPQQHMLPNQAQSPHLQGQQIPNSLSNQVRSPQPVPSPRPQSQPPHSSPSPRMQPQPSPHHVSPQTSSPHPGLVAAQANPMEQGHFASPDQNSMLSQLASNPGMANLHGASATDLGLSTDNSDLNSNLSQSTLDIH
UniProt Q15796: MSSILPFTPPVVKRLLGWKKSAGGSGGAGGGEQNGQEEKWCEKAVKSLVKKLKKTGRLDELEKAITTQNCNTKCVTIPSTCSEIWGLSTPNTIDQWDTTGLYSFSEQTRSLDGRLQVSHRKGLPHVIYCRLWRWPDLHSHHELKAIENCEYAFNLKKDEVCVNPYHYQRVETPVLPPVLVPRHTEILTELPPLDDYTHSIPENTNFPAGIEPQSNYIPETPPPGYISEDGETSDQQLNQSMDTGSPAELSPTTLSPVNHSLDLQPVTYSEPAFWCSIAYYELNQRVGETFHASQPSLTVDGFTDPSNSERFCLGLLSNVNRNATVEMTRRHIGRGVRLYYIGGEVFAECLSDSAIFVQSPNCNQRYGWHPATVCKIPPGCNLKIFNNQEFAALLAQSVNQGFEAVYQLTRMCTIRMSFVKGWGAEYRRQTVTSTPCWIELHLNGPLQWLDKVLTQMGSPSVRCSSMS
UniProt P84022: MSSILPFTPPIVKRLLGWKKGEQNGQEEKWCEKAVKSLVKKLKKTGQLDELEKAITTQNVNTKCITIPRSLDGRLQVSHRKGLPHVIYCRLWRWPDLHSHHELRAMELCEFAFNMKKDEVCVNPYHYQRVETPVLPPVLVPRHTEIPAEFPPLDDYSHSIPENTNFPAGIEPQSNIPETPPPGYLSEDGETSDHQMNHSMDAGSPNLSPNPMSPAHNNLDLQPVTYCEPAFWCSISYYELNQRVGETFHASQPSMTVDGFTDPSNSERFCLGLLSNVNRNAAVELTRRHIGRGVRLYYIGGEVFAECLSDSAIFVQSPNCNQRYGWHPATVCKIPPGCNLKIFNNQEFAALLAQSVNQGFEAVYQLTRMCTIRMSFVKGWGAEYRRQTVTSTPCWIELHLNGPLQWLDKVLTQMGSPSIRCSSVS

No constants are given. Whether binding was seen depends on the method and setting. In cells and extracts the contact can be indirect. Some entries that bind do so weakly or less than the wild type.

For SMAD2 (from UniProt Q15796 1-467), the binding entry is given as “binds”.
On to SMAD3 (from UniProt P84022 1-425), for which the binding result was “binds”.

The values above are taken from paper PMC11342681.
